# Source: the supplement of paper PMC12819154, “High-throughput peptide-centric local stability assay extends protein–ligand identification to membrane proteins, tissues and bacteria” (Nature Structural & Molecular Biology, 2025)
# The chains behind the UniProt entries cited, without tags or fusion partners. Where a name states a change or a piece, a line headed by the entry shows the natural chain unless it says otherwise.
# UniProt P50479: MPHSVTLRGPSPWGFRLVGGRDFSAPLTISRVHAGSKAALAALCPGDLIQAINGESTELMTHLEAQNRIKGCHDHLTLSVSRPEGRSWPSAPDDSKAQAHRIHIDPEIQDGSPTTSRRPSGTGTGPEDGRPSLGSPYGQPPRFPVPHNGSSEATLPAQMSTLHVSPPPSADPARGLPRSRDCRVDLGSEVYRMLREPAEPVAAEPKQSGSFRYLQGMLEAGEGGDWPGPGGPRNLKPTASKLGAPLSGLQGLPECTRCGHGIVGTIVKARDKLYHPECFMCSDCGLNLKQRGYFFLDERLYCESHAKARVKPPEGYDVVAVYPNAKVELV
# UniProt P51798: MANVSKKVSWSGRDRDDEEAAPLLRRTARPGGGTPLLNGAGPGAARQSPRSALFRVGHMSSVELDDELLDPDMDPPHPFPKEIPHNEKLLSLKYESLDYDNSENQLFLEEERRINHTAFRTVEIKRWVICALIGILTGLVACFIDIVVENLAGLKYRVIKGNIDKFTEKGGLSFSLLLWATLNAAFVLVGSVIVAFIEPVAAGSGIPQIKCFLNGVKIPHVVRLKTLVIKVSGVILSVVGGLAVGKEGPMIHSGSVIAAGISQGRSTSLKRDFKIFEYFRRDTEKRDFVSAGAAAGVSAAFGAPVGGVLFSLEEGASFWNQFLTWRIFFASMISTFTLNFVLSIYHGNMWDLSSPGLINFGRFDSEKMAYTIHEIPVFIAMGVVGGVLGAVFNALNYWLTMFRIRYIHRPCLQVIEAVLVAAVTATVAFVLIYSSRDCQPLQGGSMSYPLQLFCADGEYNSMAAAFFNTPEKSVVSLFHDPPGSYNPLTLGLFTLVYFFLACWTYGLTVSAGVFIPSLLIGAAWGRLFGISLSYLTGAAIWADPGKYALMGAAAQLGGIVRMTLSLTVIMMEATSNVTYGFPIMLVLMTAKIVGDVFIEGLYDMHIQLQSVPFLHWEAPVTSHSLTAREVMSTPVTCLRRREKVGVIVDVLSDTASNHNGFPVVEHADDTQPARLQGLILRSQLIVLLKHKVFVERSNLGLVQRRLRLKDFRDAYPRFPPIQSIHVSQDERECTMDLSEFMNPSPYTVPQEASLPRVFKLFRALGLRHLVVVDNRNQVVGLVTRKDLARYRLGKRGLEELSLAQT
# UniProt P51003: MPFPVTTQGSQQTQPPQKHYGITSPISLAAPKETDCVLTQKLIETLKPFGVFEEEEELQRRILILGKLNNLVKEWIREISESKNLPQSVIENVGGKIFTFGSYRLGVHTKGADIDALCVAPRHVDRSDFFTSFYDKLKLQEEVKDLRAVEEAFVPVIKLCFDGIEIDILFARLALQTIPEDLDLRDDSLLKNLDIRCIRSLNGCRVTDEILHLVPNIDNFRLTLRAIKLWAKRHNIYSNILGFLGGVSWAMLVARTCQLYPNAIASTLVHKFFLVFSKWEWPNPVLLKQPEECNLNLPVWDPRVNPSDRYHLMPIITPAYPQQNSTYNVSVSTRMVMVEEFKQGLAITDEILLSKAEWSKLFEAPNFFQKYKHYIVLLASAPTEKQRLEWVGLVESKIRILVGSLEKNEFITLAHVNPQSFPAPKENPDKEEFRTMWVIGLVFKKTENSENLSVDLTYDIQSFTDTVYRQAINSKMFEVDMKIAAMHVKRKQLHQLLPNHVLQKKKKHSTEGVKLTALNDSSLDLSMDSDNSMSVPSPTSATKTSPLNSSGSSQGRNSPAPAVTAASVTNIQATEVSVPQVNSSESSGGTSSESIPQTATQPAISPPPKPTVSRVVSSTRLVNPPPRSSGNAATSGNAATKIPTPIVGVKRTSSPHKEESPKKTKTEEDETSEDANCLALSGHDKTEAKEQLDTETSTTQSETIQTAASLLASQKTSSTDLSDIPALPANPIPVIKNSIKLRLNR
# UniProt P50583: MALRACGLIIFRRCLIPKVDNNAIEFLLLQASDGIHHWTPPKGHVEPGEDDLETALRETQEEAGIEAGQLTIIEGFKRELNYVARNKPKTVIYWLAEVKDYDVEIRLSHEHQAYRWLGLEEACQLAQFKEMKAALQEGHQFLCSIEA
# UniProt P51116, whole entry: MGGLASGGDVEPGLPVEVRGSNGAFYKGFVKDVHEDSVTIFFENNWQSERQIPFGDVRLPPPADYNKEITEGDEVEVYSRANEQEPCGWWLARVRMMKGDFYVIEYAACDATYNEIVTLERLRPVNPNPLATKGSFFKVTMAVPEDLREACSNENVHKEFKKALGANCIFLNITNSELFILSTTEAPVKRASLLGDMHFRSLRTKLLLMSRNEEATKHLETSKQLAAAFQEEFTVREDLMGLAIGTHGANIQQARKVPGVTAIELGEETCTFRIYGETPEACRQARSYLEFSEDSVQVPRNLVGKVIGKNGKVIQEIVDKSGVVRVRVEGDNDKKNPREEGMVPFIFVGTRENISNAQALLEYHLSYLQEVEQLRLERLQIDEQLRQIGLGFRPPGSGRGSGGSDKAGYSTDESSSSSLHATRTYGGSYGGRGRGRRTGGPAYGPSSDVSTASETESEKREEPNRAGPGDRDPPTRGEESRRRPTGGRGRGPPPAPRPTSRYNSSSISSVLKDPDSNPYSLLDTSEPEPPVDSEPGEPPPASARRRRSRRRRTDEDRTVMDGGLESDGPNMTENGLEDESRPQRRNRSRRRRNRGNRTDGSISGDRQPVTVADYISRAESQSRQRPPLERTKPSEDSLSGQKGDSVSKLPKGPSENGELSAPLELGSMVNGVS
# UniProt P50990: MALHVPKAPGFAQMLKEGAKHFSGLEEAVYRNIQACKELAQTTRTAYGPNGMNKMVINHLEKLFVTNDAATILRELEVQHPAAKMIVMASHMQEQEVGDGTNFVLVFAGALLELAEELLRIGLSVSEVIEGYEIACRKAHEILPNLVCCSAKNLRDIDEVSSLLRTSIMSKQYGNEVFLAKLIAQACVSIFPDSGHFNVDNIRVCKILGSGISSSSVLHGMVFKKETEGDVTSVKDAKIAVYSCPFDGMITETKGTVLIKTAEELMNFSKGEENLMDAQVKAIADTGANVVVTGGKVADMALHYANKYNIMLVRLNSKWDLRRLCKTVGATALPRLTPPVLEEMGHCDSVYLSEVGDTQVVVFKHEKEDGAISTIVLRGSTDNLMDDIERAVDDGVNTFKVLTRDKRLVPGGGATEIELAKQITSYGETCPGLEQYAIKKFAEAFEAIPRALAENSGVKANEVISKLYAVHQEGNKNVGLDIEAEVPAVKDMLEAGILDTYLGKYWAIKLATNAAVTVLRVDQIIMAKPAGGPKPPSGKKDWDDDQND
# UniProt P53801: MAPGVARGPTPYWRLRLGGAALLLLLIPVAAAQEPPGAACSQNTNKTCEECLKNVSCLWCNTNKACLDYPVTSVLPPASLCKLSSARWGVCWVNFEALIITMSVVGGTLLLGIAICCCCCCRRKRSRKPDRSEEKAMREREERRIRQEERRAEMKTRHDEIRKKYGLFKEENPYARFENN
# UniProt P51809, whole entry: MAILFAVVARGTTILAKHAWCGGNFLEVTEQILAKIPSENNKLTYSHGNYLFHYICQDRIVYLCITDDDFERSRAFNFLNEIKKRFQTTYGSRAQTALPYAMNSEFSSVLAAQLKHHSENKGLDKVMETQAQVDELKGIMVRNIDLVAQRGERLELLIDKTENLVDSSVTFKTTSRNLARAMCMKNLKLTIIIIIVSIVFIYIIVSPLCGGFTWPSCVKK
# UniProt P51957: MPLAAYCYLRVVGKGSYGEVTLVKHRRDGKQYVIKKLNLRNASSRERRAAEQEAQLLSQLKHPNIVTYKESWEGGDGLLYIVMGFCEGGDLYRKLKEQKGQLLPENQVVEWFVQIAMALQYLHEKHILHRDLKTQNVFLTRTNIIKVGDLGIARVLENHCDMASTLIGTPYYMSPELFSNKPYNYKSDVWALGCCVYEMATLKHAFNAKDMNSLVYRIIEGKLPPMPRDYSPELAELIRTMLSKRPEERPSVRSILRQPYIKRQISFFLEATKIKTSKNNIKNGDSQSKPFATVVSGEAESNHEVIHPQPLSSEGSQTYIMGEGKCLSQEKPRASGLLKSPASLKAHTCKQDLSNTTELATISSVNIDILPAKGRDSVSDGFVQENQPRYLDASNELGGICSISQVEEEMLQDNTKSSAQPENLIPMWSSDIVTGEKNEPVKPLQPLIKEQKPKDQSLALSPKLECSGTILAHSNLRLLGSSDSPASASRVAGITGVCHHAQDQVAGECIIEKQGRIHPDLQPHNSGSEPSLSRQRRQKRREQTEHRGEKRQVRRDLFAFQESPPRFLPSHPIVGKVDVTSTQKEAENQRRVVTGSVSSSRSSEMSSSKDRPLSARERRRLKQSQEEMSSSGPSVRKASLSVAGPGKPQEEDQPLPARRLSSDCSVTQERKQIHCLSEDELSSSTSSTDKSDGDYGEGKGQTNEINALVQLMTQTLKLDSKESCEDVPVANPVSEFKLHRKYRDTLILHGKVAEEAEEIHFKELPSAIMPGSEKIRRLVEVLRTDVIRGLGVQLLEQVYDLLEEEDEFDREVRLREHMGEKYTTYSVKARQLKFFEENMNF
# UniProt P53667: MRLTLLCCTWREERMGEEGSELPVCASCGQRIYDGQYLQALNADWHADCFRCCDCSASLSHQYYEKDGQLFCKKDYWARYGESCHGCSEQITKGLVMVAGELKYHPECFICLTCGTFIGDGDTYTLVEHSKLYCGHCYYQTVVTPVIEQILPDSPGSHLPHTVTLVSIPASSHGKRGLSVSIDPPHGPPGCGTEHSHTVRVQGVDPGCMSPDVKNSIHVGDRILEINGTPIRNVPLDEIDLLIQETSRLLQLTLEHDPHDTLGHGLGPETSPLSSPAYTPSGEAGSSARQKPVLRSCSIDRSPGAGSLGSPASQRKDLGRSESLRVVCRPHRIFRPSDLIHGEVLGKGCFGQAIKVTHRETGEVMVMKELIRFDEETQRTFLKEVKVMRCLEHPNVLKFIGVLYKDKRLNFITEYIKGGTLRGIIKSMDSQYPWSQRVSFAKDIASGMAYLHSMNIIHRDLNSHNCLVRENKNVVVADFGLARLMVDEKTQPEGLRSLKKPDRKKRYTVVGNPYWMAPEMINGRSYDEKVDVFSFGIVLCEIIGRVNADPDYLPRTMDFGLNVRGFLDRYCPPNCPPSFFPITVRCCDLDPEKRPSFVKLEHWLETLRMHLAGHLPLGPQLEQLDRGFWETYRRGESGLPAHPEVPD
# UniProt P51812, whole entry: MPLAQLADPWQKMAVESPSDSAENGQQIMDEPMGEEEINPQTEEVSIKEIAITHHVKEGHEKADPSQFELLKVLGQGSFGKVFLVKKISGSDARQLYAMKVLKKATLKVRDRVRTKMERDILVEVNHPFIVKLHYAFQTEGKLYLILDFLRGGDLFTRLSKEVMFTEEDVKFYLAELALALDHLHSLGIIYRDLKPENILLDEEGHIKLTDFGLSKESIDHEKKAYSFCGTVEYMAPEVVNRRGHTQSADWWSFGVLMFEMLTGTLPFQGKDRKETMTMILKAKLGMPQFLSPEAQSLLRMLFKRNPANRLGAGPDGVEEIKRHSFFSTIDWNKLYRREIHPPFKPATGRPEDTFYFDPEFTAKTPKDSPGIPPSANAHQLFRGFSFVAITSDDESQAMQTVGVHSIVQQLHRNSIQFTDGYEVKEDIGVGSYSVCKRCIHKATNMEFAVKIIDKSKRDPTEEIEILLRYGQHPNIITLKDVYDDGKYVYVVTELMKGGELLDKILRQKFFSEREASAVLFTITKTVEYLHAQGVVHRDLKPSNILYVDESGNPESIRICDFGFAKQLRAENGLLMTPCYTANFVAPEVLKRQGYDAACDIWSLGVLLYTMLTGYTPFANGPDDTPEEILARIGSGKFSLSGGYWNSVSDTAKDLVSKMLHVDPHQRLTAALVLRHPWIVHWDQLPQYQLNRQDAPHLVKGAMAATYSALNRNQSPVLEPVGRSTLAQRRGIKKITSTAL
# UniProt P51149, whole entry: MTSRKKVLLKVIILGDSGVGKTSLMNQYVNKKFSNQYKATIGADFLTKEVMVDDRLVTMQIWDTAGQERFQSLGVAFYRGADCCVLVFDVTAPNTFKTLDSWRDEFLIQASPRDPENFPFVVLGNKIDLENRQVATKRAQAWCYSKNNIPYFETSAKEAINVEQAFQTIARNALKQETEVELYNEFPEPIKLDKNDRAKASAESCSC
# UniProt P53779: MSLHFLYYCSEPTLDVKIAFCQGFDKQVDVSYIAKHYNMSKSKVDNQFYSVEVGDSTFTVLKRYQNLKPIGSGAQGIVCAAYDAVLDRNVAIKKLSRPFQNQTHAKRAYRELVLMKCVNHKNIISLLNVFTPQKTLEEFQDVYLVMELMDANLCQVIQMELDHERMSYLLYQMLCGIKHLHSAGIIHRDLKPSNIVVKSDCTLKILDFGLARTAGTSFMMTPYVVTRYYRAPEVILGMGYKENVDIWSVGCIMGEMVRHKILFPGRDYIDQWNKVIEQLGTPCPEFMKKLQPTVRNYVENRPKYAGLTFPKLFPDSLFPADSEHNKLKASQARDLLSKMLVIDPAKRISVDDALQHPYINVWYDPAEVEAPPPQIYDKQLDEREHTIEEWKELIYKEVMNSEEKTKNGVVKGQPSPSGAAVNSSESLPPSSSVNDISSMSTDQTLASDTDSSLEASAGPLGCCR
# Some of the results follow. Most entries show no effect beyond the scatter of the controls.
# Compound: Cc1nc(Nc2ncc(C(=O)Nc3c(C)cccc3Cl)s2)cc(N2CCN(CCO)CC2)n1 [dasatinib]
# Assay: log2 fold change of tryptic peptide abundance, ligand vs vehicle (limited proteolysis) (log2 ratio); higher = more trypsin-susceptible (destabilized)
# Details: ligand concentration: 5 uM; sample: K562 cleared lysate
row,Target,log2 fold change
1,"PPP5C (peptide sequence: AIAGDEHKR, peptide start residue: 151) (UniProt P53041)",-0.212
2,"PSMD8 (peptide sequence: SPNLSKCGEELGR, peptide start residue: 106) (UniProt P48556)",0.607
3,"ALDH5A1 (peptide sequence: AFAEAMKK, peptide start residue: 359) (UniProt P51649)",0.415
4,"PDLIM4 (peptide sequence: GYFFLDER, peptide start residue: 292) (UniProt P50479)",-0.746
5,"METAP1 (peptide sequence: LQCPTCIK, peptide start residue: 20) (UniProt P53582)",0.0148
6,"GTF2A2 (peptide sequence: AINAALAQR, peptide start residue: 43) (UniProt P52657)",-0.211
7,"CLCN7 (peptide sequence: DRDDEEAAPLLR, peptide start residue: 14) (UniProt P51798)",0.0993
8,"PAPOLA (peptide sequence: SSGNAATSGNAATKIPTPIVGVKR, peptide start residue: 628) (UniProt P51003)",0.216
9,"NUDT2 (peptide sequence: ACGLIIFR, peptide start residue: 5) (UniProt P50583)",-0.0629
10,"CENPF (peptide sequence: TKHECQNLESEPIR, peptide start residue: 1162) (UniProt P49454)",-0.27
11,"VASP (peptide sequence: VKQELLEEVKK, peptide start residue: 347) (UniProt P50552)",0.131
12,"RECQL (peptide sequence: IIAHFLIQQYLK, peptide start residue: 545) (UniProt P46063)",-0.282
13,"NASP (peptide sequence: MAVLNEQVK, peptide start residue: 618) (UniProt P49321)",0.0534
14,"FXR2 (peptide sequence: LRPVNPNPLATK, peptide start residue: 122) (UniProt P51116)",-0.402
15,"CCT8 (peptide sequence: TAEELMNFSK, peptide start residue: 261) (UniProt P50990)",0.0647
16,"PTTG1IP (peptide sequence: KYGLFKEENPYAR, peptide start residue: 164) (UniProt P53801)",-0.261
17,"SUB1 (peptide sequence: QVAPEKPVKK, peptide start residue: 30) (UniProt P53999)",0.0532
18,"IREB2 (peptide sequence: GSCDSGELGR, peptide start residue: 176) (UniProt P48200)",-0.112
19,"CLNS1A (peptide sequence: GLGTGTLYIAESR, peptide start residue: 31) (UniProt P54105)",0.0377

row,Target,log2 fold change
1,"MAP1B (peptide sequence: TSDVGGYYYEK, peptide start residue: 1898) (UniProt P46821)",0.093
2,"VAMP7 (peptide sequence: AILFAVVAR, peptide start residue: 2) (UniProt P51809)",-0.299
3,"YARS (peptide sequence: APWELLELR, peptide start residue: 85) (UniProt P54577)",-0.182
4,"MAPKAPK2 (peptide sequence: VDYEQIK, peptide start residue: 365) (UniProt P49137)",0.283
5,"AP3M2 (peptide sequence: ELIKPPTILR, peptide start residue: 132) (UniProt P53677)",-0.137
6,"CDKN1B (peptide sequence: QAEHPKPSACR, peptide start residue: 20) (UniProt P46527)",-0.345
7,"PIP4K2A (peptide sequence: DVEFLAQLK, peptide start residue: 262) (UniProt P48426)",-2.99
8,"NEK4 (peptide sequence: VAEEAEEIHFK, peptide start residue: 752) (UniProt P51957)",-0.601
9,"LIMK1 (peptide sequence: TMDFGLNVR, peptide start residue: 556) (UniProt P53667)",-0.475
10,"UniProt P51814 (peptide sequence: TGANSCEHDHYEK, peptide start residue: 280)",-0.169
11,"LIMS1 (peptide sequence: AMNNSWHPECFR, peptide start residue: 85) (UniProt P48059)",-0.196
12,"UniProt P51812 (peptide sequence: GAMAATYSALNR, peptide start residue: 701)",0.0853
13,"SULT1A1 (peptide sequence: NAKDVAVSYYHFYHMAK, peptide start residue: 131) (UniProt P50225)",0.202
14,"STK19 (peptide sequence: DSEITHLVNAGVLTVR, peptide start residue: 268) (UniProt P49842)",0.304
15,"UniProt P51149 (peptide sequence: EVMVDDR, peptide start residue: 49)",0.184
16,"DAP (peptide sequence: GDKDFPPAAAQVAHQKPHASMDK, peptide start residue: 66) (UniProt P51397)",0.425
17,"UniProt P53779 (peptide sequence: EHTIEEWK, peptide start residue: 346)",0.0995
18,"MRPL12 (peptide sequence: NYIQGINLVQAKK, peptide start residue: 151) (UniProt P52815)",0.406

# Two entries picked at random from the list so far:
row,Target,log2 fold change
18,"MRPL12 (peptide sequence: NYIQGINLVQAKK, peptide start residue: 151) (UniProt P52815)",0.406
3,"YARS (peptide sequence: APWELLELR, peptide start residue: 85) (UniProt P54577)",-0.182
